Source: paper PMC7775567
Results are given in words; binding and its absence hold for the method and conditions named. In cells and extracts the contact can be indirect. Some results given as binding are weak or reduced against the parent protein; the word gives no strength. Sequences can lack the tags named with a protein.

Protein sequences, listed by entry. Tags and fused reporters are not part of them.
UniProt O70239: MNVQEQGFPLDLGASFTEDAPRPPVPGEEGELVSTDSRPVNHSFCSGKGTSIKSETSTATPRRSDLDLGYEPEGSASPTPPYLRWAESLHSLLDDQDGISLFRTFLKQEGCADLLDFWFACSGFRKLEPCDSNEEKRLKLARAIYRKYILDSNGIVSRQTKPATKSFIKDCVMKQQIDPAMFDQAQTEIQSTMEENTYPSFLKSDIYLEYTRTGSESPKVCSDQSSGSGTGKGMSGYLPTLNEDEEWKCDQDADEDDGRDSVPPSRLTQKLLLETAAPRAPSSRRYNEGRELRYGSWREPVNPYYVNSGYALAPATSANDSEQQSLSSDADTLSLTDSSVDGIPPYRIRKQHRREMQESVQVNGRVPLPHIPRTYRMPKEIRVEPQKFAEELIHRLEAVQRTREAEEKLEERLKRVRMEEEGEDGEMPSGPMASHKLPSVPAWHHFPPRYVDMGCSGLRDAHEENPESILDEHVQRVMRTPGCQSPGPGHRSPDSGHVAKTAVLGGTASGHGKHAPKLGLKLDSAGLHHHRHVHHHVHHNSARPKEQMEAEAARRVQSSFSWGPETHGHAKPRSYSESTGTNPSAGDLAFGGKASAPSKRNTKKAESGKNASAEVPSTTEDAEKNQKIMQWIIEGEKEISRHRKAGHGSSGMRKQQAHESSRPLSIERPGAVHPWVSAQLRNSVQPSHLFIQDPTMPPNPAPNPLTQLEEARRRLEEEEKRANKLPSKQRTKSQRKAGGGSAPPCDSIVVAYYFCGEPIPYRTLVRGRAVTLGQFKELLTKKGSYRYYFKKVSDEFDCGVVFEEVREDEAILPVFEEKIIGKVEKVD
UniProt P70478: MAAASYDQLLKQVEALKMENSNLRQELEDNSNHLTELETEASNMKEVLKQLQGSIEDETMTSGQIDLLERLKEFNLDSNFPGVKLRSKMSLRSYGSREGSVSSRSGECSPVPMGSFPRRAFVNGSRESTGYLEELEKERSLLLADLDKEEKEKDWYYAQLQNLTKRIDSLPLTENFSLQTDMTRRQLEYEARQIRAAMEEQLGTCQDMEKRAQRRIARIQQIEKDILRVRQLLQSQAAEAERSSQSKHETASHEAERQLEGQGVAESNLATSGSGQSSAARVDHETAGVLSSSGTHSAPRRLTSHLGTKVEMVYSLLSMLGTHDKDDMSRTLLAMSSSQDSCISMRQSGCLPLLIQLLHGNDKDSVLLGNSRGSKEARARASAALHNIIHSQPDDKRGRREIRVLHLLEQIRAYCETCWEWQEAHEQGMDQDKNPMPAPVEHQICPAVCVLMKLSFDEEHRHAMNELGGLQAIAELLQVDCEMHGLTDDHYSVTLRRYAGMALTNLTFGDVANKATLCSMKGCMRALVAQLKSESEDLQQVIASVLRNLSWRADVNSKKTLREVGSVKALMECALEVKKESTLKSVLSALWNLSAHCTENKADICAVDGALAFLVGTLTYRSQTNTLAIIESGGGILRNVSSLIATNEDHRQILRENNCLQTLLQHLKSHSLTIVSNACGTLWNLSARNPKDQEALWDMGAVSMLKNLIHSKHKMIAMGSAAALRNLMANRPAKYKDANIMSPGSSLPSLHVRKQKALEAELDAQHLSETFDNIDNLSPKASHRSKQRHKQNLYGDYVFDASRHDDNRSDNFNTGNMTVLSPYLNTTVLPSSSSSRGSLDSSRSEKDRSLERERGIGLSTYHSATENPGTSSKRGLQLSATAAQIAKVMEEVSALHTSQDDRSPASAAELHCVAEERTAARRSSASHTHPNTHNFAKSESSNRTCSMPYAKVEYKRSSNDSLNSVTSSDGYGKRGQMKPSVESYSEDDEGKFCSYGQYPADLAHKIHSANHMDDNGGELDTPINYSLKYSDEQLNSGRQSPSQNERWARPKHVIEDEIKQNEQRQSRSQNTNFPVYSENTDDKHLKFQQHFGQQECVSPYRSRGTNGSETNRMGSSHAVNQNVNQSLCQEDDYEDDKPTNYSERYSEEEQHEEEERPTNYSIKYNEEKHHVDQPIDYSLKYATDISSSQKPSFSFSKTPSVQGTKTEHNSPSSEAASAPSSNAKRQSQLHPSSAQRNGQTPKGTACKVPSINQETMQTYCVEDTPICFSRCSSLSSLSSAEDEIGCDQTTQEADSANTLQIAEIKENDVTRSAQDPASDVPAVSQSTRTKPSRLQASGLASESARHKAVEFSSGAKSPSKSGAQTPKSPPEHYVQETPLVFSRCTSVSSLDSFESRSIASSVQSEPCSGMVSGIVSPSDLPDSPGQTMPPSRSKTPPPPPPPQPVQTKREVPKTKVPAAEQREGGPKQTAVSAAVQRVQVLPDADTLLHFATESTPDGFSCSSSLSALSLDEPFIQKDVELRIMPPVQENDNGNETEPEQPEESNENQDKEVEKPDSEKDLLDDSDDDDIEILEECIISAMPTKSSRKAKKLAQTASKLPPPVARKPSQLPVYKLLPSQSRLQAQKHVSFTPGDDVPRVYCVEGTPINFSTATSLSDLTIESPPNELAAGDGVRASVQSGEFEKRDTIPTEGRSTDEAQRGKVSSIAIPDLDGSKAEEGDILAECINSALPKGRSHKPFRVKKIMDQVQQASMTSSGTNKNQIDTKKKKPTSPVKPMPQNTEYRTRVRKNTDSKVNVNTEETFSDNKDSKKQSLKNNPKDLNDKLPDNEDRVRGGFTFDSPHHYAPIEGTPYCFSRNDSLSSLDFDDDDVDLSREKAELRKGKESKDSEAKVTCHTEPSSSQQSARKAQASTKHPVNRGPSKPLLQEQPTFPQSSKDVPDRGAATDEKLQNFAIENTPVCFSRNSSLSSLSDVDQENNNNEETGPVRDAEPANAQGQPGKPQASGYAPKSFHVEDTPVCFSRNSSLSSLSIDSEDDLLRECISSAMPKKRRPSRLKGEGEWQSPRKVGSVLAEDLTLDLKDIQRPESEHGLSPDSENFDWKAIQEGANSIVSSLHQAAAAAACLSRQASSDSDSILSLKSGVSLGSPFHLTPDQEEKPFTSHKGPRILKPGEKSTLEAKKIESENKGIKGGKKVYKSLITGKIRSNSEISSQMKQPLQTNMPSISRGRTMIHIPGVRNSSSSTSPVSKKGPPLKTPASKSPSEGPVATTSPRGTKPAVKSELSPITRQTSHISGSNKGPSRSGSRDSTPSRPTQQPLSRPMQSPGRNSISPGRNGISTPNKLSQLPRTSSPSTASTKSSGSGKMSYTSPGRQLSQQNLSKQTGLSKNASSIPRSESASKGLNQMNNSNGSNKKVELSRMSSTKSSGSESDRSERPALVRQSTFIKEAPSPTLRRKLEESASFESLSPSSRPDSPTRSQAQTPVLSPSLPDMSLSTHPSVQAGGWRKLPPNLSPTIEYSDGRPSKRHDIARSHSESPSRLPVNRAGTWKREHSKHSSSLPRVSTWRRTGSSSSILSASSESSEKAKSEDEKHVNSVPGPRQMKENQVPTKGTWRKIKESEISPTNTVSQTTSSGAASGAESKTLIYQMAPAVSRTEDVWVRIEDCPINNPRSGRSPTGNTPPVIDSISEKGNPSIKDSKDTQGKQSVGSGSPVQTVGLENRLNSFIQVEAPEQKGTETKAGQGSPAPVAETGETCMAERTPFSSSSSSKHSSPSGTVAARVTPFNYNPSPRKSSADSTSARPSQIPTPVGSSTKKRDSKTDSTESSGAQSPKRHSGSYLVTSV

Key:
[1] = molecular target: Axin1 (rat (endogenous in primary neurons)) (UniProt O70239); test: co-IP; Neurons treated with astrocyte derived EV-CK1-IL1β (and control EVs) for 18 h; antibody against GSK3, Axin1 or APC coupled to Dynabeads M-450 Epoxy, incubated with cell lysate overnight at 4°C, washed three times with PBS; immunoblot probed for Myc tagged CK1
[2] = molecular target: APC (rat (endogenous in primary neurons)) (UniProt P70478); test: as above

B1: Myc-tagged CK1 (casein kinase 1; Csnk1a1) (enzyme, UniProt P97633 1-325)
chain: MASSSGSKAEFIVGGKYKLVRKIGSGSFGDIYLAINITNGEEVAVKLESQKARHPQLLYESKLYKILQGGVGIPHIRWYGQGKDYNVLVMDLLGPSLEDLFNFCSRRFTMKTVLMLADQMISRIEYVHTKNFIHRDIKPDNFLMGIGRHCNKLFLIDFGLAKKYRDNRTRQHIPYREDKNLTGTARYASINAHLGIEQSRRDDMESLGYVLMYFNRTSLPWQGLKAATKKQKYEKISEKKMSTPVEVLCKGFPAEFAMYLNYCRGLRFEEAPDYMYLRQLFRILFRTLNHQYDYTFDWTMLKQKAAQQAASSSGQGQQAQTPTGF
- binding [1]: no binding
- binding [2]: binds
